# Data as given in PubChem BioAssay (NCATS).
# This is one part of the list. Further columns of the screen follow, without active or inactive calls. For some of these results: The list favours compounds with an active or inconclusive main result. Words in brackets tell the shape of the fitted curve; partial curves, single points and poor fits give uncertain potencies.
# Assays:
# [1] = NCATS anti-infectives library activity on the primary C. elegans qHTS viability assay (AID 1745855); conditions: C. elegans worm area imaging
# Method in brief: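 Viability read-out is GFP fluorescence of PE254-GFP-FLuc C. elegans, measured by laser cytometry (488 nm) at day 0, 3 and 7. Ten L1 worms per well were incubated 7 days at 21 °C with compounds and bacterial capsules in S medium.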
# [2] = qHTS drug screen for cell cycle checkpoint inhibitors in PARPi-resistant BRCA-mutant ovarian cancer cell lines. (AID 1963452); conditions: PEO1/OlaR viability, CellTiter-Glo luminescence, 96 h
# Method in brief: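 PEO1, PEO4 and PEO1/OlaR ovarian cancer cells, 600 per well, exposed 96 h at 37C to a dilution series. Viability read by CellTiter-Glo luminescence, normalized to DMSO and empty wells; activity summarized as Z-AUC.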
# [3] = qHTS for identification of novel therapeutic agents for treatment of microphthalmiaassociated transcription factor (MiT) renal cell carcinoma (RCC) (AID 1963991); conditions: CellTiter-Glo, 48 h; for z-score: stronger effect = lower value
# Method in brief: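 Curves over 11 concentrations were fitted to CellTiter-Glo luminescence, scaled between empty wells (0%) and DMSO (100%) viability. Cells were UOK109, UOK124 and UOK145 TFE3-fusion RCC lines at 500/well, exposed 48 hours at 37 C.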
# [4] = day 7, measured here: worm number
# [5] = day 7, measured here: worm area, day 3
# [6] = day 7, measured here: worm number, day 3
# [7] = measured here: PEO1 parental viability
# [8] = TFE3-RCC UOK109 viability, measured here: UOK109 Z-AUC
# [9] = TFE3-RCC viability, measured here: UOK124 Z-AUC
# [10] = TFE3-RCC viability, measured here: UOK124 cell viability
# [11] = TFE3-RCC viability, measured here: UOK145 Z-AUC
# [12] = TFE3-RCC viability, measured here: UOK145 cell viability
smiles,measurement,setting,value
CN(C)CC(=O)Nc1ccc2[nH]c(=O)c3ccccc3c2c1,AC50,[1]; [4],"20.5 µM [falling, partial curve]"
same,AC50,[1]; [5],"18.3 µM [falling, partial curve, poor fit]"
same,AC50,[1]; [6],"0.325 µM [falling, full curve, poor fit]"
CC[C@@]1([C@@H]2O[C@@H]([C@H]3O[C@@](O)(CO)[C@H](C)C[C@@H]3C)C[C@@H]2C)CC[C@H]([C@]2(C)CCC3(C[C@H](O)[C@@H](C)[C@@H]([C@@H](C)[C@@H](OC)[C@H](C)C(=O)O)O3)O2)O1 (stereo partly specified),AC50,[1]; [5],"0.0015 µM [falling, full curve, poor fit]"
same,AC50,[1]; [6],"0.0578 µM [falling, partial curve, poor fit]"
same,AC50,[2]; [7],"0.0849 µM [falling, full curve]"
same,AC50,[2]; measured here: PEO4 viability,"0.301 µM [falling, full curve]"
COc1cc2c(cc1Cc1cccc(Cl)c1F)c(=O)c(C(=O)O)cn2[C@H](CO)C(C)C,AC50,[1]; [6],"7.27 µM [rising, partial curve]"
same,AC50,[2]; [7],"13.8 µM [falling, partial curve]"
same,AC50,[2]; measured here: PEO4 viability,"19.5 µM [falling, single point]"
same,z-score,[3]; [8],0.426
same,z-score,[3]; [9],0.239
same,AC50,[3]; [10],"10.5 µM [falling, partial curve]"
same,z-score,[3]; [11],0.475
O=C(/C=C\n1cnc(-c2cc(C(F)(F)F)cc(C(F)(F)F)c2)n1)NNc1cnccn1,AC50,[1]; [4],"29 µM [falling, single point]"
same,AC50,[1]; [5],"0.0073 µM [falling, full curve, poor fit]"
same,AC50,[1]; [6],"36.5 µM [falling, single point]"
same,AC50,[2]; [7],"0.049 µM [falling, full curve]"
same,AC50,[2]; measured here: PEO4 viability,"0.049 µM [falling, full curve]"
Cc1nc(N(C)C(=O)Cc2ccc(-c3ccccn3)cc2)sc1S(N)(=O)=O,AC50,[1]; [4],"2.58 µM [falling, full curve]"
same,AC50,[1]; [6],"16.3 µM [falling, partial curve]"
CN(C)c1nc2c(Br)c(Br)c(Br)c(Br)c2n1CC(=O)O,AC50,[1]; [4],"23 µM [falling, single point]"
same,AC50,[1]; [5],"36.5 µM [falling, single point]"
same,AC50,[1]; [6],"45.9 µM [rising, single point]"
O=c1oc2cc(O)ccc2s1,AC50,[1]; [6],"5.15 µM [falling, full curve, poor fit]"
same,AC50,[2]; [7],"0.616 µM [rising, partial curve, poor fit]"
CC(C)=CC[C@@H](O)C1=CC(=O)c2c(O)ccc(O)c2C1=O,AC50,[1]; [6],"29 µM [rising, single point]"
same,z-score,[3]; [8],-0.252
same,z-score,[3]; [9],-1.05
same,AC50,[3]; [10],"0.935 µM [falling, full curve]"
same,z-score,[3]; [11],-0.431
same,AC50,[3]; [12],"3.72 µM [falling, full curve]"
Cc1cc(OCCCS(C)(=O)=O)cc(C)c1-c1cccc(COc2ccc3c(c2)OC[C@H]3CC(=O)O)c1,AC50,[2]; [7],"0.871 µM [falling, full curve, poor fit]"
CCS(=O)(=O)Nc1ccc2[nH]c(O)c(C(=Nc3ccc(CN4CCCCC4)cc3)c3ccccc3)c2c1,AC50,[1]; [4],"14.5 µM [falling, partial curve, poor fit]"
same,AC50,[2]; [7],"2.19 µM [falling, partial curve]"
same,AC50,[2]; measured here: PEO4 viability,"1.95 µM [falling, partial curve, poor fit]"
same,z-score,[3]; [8],-0.705
same,z-score,[3]; [9],-1.17
same,AC50,[3]; [10],"13.2 µM [falling, partial curve]"
same,z-score,[3]; [11],0.299
same,AC50,[3]; [12],"11.8 µM [falling, partial curve]"
NC(=O)c1cccc2cn(-c3ccc([C@@H]4CCCNC4)cc3)nc12,AC50,[1]; [5],"0.0578 µM [falling, full curve, poor fit]"
same,AC50,[2]; [7],"7.76 µM [falling, partial curve]"
same,AC50,[2]; measured here: PEO4 viability,"7.76 µM [falling, partial curve, poor fit]"
same,z-score,[3]; [8],-0.393
same,z-score,[3]; [9],0.611
same,AC50,[3]; [10],"23.5 µM [falling, partial curve, poor fit]"
same,z-score,[3]; [11],-0.156
same,AC50,[3]; [12],"20.9 µM [falling, partial curve, poor fit]"
O=c1[nH]c(=O)n([C@H]2C[C@@H](O)[C@@H](CO)O2)cc1C=CBr,AC50,[1]; [6],"25.8 µM [falling, single point]"
same,z-score,[3]; [8],-0.0496
same,z-score,[3]; [9],0.701
same,z-score,[3]; [11],0.115
CNC(=O)c1cc(Oc2ccc3nc(N[C@@H]4CCCC[C@H]4O)sc3c2)ccn1,AC50,[2]; [7],"21.9 µM [falling, partial curve, poor fit]"
CCCCCCCCCCCCc1ccc(S(=O)(=O)Nc2nncs2)cc1,AC50,[2]; [7],"4.36 µM [rising, full curve, poor fit]"
COc1nc(N)nc2c1ncn2C1OC(CO)C(O)C1O (stereo unspecified),AC50,[2]; [7],"6.16 µM [falling, partial curve, poor fit]"
CC(C)[C@H](O)C(=O)N[C@@H](C)C(=O)N[C@@H]1C(=O)N(C)CCc2ccccc21,AC50,[1]; [6],"0.728 µM [rising, full curve, poor fit]"
same,z-score,[3]; [8],-0.024
same,z-score,[3]; [9],0.289
same,AC50,[3]; [10],"6.62 µM [falling, partial curve, poor fit]"
same,z-score,[3]; [11],0.0115

# A second format for part of the listing above:
smiles	measurement	setting	value
Cc1nc(N(C)C(=O)Cc2ccc(-c3ccccn3)cc2)sc1S(N)(=O)=O	AC50	[1]; [4]	2.58 µM [falling, full curve]
same	AC50	[1]; [6]	16.3 µM [falling, partial curve]
CN(C)c1nc2c(Br)c(Br)c(Br)c(Br)c2n1CC(=O)O	AC50	[1]; [4]	23 µM [falling, single point]
same	AC50	[1]; [5]	36.5 µM [falling, single point]
